± gives the standard deviation of the averaged measurements. This is one part of the list.
Compound: Nc1nc2c(ncn2[C@@H]2O[C@H](COP(=O)(O)OP(=O)(O)OP(=O)(O)O)[C@@H](O)[C@H]2O)c(=O)[nH]1 [guanosine triphosphate]
Experiment: NP40-soluble protein abundance relative to vehicle (solubility fold change) (ratio); higher = more soluble protein in presence of GTP
In short: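 Values are fold changes against the detergent-processed vehicle, based on vsn-normalised intensities. Jurkat crude lysate was treated at eight concentrations from 0.1 to 10 mM (10 min at room temperature, then 3 min at 37 °C), solubilised with 0.8% NP40 and benzonase, ultracentrifuged and analysed by TMT-labelled LC-MS/MS over three independent experiments.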

Protein sequences, listed by entry. Tags and fused reporters are not part of them. Lines headed by an entry give the natural chain unless they say otherwise; changes in a name come on top.
UniProt Q9UBS4: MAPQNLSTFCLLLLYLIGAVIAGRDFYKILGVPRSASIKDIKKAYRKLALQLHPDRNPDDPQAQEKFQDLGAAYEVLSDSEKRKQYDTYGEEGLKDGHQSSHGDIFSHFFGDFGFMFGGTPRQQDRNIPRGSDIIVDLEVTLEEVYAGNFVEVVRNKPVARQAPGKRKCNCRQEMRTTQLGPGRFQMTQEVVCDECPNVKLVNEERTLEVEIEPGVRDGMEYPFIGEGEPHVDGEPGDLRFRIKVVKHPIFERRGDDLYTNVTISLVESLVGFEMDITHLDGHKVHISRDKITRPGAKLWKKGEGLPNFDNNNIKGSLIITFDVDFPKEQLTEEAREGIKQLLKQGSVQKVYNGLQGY
UniProt Q9NXE8: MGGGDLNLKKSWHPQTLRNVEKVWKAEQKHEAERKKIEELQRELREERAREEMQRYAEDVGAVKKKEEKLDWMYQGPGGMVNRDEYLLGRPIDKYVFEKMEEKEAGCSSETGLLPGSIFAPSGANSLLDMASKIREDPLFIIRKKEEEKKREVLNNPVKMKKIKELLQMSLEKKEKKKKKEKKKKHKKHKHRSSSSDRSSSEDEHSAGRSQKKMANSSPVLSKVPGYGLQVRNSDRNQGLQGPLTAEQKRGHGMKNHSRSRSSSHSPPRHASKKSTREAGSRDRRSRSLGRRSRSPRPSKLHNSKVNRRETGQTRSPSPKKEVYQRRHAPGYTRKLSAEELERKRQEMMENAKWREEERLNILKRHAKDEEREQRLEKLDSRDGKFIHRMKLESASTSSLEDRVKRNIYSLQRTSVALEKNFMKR
UniProt Q9NX40: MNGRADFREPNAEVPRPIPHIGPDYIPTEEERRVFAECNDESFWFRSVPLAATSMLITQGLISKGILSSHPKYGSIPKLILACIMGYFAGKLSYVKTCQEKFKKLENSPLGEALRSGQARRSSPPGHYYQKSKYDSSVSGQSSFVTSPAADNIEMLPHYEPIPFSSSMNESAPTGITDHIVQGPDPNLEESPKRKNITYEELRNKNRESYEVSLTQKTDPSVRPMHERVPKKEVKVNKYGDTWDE
UniProt Q9NWZ3, whole entry: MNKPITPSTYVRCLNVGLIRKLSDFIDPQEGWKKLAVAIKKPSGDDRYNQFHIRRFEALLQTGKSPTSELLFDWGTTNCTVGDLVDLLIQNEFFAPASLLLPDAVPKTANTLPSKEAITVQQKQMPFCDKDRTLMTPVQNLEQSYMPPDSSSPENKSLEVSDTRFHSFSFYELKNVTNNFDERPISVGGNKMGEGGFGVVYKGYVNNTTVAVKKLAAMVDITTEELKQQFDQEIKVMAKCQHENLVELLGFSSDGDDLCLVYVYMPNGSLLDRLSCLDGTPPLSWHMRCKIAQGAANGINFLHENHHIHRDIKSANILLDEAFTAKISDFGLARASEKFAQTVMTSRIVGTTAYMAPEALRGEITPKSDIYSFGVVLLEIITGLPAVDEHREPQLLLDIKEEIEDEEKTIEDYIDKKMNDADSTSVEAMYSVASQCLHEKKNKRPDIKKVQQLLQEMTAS
UniProt Q9UIG0: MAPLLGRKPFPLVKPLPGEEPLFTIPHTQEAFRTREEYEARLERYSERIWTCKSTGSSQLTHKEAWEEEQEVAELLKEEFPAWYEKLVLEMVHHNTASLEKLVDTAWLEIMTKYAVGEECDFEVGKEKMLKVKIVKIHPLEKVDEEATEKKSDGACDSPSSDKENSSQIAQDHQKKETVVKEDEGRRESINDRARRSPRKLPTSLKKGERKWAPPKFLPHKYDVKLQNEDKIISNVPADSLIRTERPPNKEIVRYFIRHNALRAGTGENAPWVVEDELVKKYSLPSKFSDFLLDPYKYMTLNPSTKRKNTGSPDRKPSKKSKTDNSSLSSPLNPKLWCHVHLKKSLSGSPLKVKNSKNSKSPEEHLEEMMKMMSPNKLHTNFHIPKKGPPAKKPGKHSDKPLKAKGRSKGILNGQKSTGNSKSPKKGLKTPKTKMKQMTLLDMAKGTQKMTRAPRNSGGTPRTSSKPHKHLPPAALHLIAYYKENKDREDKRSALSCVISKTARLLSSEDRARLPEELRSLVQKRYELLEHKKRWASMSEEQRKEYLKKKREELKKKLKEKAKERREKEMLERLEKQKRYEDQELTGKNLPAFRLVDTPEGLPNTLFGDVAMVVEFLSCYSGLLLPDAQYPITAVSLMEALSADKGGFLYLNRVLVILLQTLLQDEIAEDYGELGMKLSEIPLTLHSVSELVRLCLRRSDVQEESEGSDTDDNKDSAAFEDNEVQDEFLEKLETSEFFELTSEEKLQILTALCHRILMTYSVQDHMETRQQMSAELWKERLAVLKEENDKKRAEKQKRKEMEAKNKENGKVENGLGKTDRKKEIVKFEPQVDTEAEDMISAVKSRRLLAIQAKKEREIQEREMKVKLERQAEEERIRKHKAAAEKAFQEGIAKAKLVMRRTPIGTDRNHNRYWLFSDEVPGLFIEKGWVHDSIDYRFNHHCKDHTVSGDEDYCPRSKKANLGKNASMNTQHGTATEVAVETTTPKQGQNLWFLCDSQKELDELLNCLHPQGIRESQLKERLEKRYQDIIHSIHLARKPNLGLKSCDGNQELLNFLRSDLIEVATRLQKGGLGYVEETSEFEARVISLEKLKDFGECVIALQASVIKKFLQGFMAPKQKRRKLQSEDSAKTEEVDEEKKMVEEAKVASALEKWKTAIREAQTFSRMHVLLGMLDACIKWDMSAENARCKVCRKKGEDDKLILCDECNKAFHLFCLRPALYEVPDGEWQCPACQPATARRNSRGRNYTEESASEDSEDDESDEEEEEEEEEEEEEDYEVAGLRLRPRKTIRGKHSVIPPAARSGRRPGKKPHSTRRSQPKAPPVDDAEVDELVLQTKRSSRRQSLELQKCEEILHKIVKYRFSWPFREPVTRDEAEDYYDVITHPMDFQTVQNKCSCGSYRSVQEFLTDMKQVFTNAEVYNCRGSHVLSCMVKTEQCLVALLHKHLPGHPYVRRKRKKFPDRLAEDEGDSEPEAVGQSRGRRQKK
UniProt Q9UBW8: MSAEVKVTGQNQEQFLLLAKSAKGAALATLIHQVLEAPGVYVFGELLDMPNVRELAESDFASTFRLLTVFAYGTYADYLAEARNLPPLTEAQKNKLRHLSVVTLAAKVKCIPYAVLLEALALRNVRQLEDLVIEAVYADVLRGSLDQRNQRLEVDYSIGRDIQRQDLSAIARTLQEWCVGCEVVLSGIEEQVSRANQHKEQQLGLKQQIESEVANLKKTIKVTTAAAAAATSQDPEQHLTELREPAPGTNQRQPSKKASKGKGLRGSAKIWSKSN
UniProt Q9P2D1: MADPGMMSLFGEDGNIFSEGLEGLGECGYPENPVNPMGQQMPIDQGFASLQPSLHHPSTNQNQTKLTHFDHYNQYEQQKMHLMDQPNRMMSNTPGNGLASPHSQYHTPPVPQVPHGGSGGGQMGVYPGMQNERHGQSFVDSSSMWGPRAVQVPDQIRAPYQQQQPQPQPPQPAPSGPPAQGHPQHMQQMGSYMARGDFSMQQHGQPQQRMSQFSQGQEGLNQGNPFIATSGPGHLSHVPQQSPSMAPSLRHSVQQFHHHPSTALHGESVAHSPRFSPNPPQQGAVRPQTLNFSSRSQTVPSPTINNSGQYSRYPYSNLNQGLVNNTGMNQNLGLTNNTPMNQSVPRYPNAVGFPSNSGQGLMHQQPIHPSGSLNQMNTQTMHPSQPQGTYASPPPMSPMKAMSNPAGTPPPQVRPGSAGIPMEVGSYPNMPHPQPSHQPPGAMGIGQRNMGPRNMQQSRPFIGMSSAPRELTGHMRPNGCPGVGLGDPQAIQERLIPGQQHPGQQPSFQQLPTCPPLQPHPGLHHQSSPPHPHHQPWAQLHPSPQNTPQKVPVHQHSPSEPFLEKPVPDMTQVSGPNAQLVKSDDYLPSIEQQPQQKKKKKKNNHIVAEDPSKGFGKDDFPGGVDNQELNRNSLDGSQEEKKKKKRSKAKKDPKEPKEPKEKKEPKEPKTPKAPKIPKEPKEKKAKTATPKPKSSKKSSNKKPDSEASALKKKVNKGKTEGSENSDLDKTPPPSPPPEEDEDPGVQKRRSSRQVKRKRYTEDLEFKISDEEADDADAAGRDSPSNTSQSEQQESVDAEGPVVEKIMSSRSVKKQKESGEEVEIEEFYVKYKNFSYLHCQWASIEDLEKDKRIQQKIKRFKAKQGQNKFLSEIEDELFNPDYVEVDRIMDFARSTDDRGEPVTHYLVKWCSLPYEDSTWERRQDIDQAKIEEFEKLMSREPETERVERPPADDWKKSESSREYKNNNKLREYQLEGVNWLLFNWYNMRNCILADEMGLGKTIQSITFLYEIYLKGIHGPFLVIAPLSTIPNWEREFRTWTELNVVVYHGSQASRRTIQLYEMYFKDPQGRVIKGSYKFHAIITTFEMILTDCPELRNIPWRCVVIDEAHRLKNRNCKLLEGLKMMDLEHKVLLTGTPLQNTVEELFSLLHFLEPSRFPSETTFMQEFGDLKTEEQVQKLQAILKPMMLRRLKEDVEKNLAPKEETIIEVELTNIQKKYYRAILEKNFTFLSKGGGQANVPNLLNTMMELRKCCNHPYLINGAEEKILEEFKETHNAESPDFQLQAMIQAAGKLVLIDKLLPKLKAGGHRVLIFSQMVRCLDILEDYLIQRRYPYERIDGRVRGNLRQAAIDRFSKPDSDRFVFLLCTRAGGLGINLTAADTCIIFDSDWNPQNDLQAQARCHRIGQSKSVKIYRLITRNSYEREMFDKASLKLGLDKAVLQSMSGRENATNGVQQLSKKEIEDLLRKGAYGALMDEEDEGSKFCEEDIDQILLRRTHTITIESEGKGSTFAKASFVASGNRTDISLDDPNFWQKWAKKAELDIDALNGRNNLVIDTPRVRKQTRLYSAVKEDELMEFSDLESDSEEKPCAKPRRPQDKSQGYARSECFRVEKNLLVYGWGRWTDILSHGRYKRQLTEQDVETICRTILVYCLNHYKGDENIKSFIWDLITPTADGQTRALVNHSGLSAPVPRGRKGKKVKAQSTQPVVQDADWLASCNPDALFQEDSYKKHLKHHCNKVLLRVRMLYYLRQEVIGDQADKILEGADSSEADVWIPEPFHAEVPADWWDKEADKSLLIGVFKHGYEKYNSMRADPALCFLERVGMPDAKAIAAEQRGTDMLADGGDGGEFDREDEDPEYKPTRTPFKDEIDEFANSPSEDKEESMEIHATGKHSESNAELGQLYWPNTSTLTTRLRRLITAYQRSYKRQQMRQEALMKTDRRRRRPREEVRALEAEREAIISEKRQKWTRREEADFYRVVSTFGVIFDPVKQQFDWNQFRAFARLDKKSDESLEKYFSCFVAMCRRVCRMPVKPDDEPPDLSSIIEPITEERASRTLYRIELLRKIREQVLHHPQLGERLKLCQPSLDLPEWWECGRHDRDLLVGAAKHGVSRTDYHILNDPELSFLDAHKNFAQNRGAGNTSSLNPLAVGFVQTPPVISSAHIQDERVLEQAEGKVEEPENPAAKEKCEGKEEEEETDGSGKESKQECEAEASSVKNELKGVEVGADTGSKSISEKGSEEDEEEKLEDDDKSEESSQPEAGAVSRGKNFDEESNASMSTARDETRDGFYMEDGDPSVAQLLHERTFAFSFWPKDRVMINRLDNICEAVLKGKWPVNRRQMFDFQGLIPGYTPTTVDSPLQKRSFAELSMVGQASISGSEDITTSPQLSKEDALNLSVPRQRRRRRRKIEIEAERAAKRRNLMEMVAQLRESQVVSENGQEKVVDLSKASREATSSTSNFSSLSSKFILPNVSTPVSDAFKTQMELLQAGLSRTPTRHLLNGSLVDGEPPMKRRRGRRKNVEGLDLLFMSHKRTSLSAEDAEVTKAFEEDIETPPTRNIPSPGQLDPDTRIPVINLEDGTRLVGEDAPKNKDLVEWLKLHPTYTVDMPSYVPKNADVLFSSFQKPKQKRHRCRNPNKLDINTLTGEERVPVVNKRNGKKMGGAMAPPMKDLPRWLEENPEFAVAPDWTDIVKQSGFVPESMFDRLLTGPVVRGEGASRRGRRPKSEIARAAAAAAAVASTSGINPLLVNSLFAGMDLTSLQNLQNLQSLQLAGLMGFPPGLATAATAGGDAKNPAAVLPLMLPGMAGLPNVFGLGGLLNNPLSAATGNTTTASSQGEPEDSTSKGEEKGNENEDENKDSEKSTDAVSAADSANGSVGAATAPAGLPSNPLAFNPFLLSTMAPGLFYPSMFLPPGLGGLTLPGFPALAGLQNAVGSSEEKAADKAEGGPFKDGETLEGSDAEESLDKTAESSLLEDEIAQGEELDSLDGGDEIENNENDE
UniProt Q9UBP6: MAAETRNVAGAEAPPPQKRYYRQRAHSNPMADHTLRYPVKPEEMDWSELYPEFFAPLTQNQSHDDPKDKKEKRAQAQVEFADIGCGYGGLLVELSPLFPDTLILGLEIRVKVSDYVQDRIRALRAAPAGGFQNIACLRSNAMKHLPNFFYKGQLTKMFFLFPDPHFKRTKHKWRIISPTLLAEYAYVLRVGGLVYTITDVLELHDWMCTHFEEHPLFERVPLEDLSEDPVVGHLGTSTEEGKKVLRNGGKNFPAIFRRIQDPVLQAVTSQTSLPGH

Target	NP40-soluble protein abundance (concentration: 0.1mM)	NP40-soluble protein abundance (concentration: 0.5mM)	NP40-soluble protein abundance (concentration: 1mM)	NP40-soluble protein abundance (concentration: 2mM)	NP40-soluble protein abundance (concentration: 4mM)	NP40-soluble protein abundance (concentration: 6mM)	NP40-soluble protein abundance (concentration: 8mM)	NP40-soluble protein abundance (concentration: 10mM)
AGPAT5 (UniProt Q9NUQ2)	0.994 ± 0.049	0.963 ± 0.029	0.927 ± 0.069	0.967 ± 0.033	0.934 ± 0.041	0.914 ± 0.12	0.871 ± 0.02	0.903 ± 0.032
DNAJB11 (UniProt Q9UBS4)	1.01 ± 0.027	1.02 ± 0.048	1.03 ± 0.059	1 ± 0.048	1.01 ± 0.051	1.02 ± 0.046	1.005 ± 0.0044	0.982 ± 0.029
UniProt Q9NXE8	1.05 ± 0.07	1.05 ± 0.082	1.18 ± 0.12	1.09 ± 0.19	1.2 ± 0.099	1.16 ± 0.19	1.174 ± 0.0048	1.23 ± 0.16
OCIAD1 (UniProt Q9NX40)	0.922 ± 0.025	0.9 ± 0.044	1.01 ± 0.016	0.982 ± 0.058	0.971 ± 0.072	0.956 ± 0.053	0.956 ± 0.034	0.974 ± 0.037
RAB22A (UniProt Q9UL26)	1.1 ± 0.045	1.04 ± 0.034	1.01 ± 0.014	1.01 ± 0.06	1.03 ± 0.072	0.938 ± 0.049	0.954 ± 0.047	0.922 ± 0.062
IRAK4 (UniProt Q9NWZ3)	1 ± 0.012	0.983 ± 0.052	0.931 ± 0.03	0.919 ± 0.035	0.898 ± 0.041	0.904 ± 0.033	0.871 ± 0.066	0.862 ± 0.054
UniProt Q9UIG0 and related entries	0.907 ± 0.029	0.912 ± 0.061	1 ± 0.053	1.01 ± 0.077	1.11 ± 0.076	1.27 ± 0.13	1.32 ± 0.12	1.62 ± 0.089
UniProt Q9NZ01	0.992 ± 0.044	1.04 ± 0.093	0.912 ± 0.072	0.958 ± 0.12	0.958 ± 0.094	0.977 ± 0.12	0.924 ± 0.075	0.89 ± 0.031
UniProt Q9UM21	1.02 ± 0.027	1.03 ± 0.034	1.015 ± 0.0023	0.987 ± 0.017	0.958 ± 0.027	0.961 ± 0.018	0.947 ± 0.008	0.947 ± 0.046
COPS7A (UniProt Q9UBW8)	0.953 ± 0.1	0.912 ± 0.09	1.05 ± 0.15	1.09 ± 0.12	1.09 ± 0.18	1.05 ± 0.12	0.985 ± 0.12	1.08 ± 0.18
UniProt Q9NXN4 and related entries	1.1 ± 0.079	1.04 ± 0.11	1 ± 0.095	0.959 ± 0.13	0.992 ± 0.11	0.949 ± 0.093	0.921 ± 0.1	0.897 ± 0.1
UniProt Q9ULJ3 and related entries	1.05 ± 0.089	1.02 ± 0.092	1.04 ± 0.09	1.01 ± 0.11	0.942 ± 0.086	0.981 ± 0.12	1 ± 0.12	0.928 ± 0.079
CHD7 (UniProt Q9P2D1)	0.994 ± 0.0092	0.988 ± 0.1	1.03 ± 0.13	0.985 ± 0.13	0.957 ± 0.03	1.03 ± 0.16	0.904 ± 0.044	0.992 ± 0.0044
METTL1 (UniProt Q9UBP6)	0.998 ± 0.11	0.961 ± 0.15	0.967 ± 0.083	0.945 ± 0.14	1 ± 0.092	0.924 ± 0.13	0.96 ± 0.13	0.952 ± 0.1

Reference: the supplement of paper PMC6411743
